# Assay results taken from patent publication US20060088886A1, “Topiramate analogs” (priority 2004, published 2006).
# Experiment: Linearity / percent recovery of topiramate in agglutination immunoassay
# Source text: Linearity can be measured in order to illustrate an ability to provide results that are directly proportional to the concentration of an analyte in the test sample. As such, linearity typically refers to an overall system response, and the linearity of a system can be measured by testing levels of an analyte, which are known by formulation or known relative to each other. When the system results are plotted against these values, the degree to which the plotted curve conforms to a straight line is a measure of a system linearity.
# Briefly, the protocol is used to assess linearity, and the samples with a matrix appropriate to the specimens are analyzed. The following samples are prepared: prepare 1 μg/ml topiramate sample by dilution of Cal B (2.0 μg/ml) with Cal A (0 μg/ml); prepare 3 μg/ml topiramate sample by dilution of Cal C (4.0 μg/ml) with Cal B (2.0 μg/ml); prepare 6 μg/ml topiramate sample by dilution of Cal D (8.0 μg/ml) with Cal C (4.0 μg/ml); prepare 11.9 μg/ml topiramate sample by dilution of Cal E (15.9.0 μg/ml) with Cal C (8.0 μg/ml); and prepare 23.5 μg/ml topiramate sample by dilution of Cal F (31.7 μg/ml) with Cal E (15.9 μg/ml).
# The data is collected after a sample or a quality control material is assayed, and reported as the average test result, which is called recovery. The percent recovery is calculated based on the following equation: [formula]
smiles,measurement,setting,value
"CC1(C)O[C@@H]2[C@@H](CO[C@@]3(COS(N)(=O)=O)OC(C)(C)O[C@@H]23)O1 [Topiramate, 2,3:4,5-di-O-isopropylidene-beta-D-fructopyranose sulfamate]",Recovered topiramate concentration,Theoretical topiramate concentration 1 μg/ml,0.94 µg/mL
same,Recovered topiramate concentration,Theoretical topiramate concentration 2 μg/ml,2.04 µg/mL
same,Recovered topiramate concentration,Theoretical topiramate concentration 3 μg/ml,3.06 µg/mL
same,Recovered topiramate concentration,Theoretical topiramate concentration 4 μg/ml,4.05 µg/mL
same,Recovered topiramate concentration,Theoretical topiramate concentration 6 μg/ml,6.03 µg/mL
same,Recovered topiramate concentration,Theoretical topiramate concentration 8 μg/ml,7.82 µg/mL
same,Recovered topiramate concentration,Theoretical topiramate concentration 11.9 μg/ml,11.62 µg/mL
same,Recovered topiramate concentration,Theoretical topiramate concentration 15.9 μg/ml,15.59 µg/mL
same,Recovered topiramate concentration,Theoretical topiramate concentration 23.5 μg/ml,23.14 µg/mL
same,Recovered topiramate concentration,Theoretical topiramate concentration 31.7 μg/ml,30.51 µg/mL
